PubChem BioAssay AID504808, Drosophila RNAi Screening Center – 2011

Assay: 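Fly genes required to hold E2F transcription in check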 (primary screen)
Cells: Drosophila S2 cells
Knock-down reagent: long dsRNA against Drosophila genes
Detection: 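Dual luciferase plate measurements; E2F-specific signal taken as firefly over Renilla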
Direction: E2F firefly: higher = more E2F reporter activity; Renilla normaliser: higher = more normaliser reporter signal
Active means: 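a knock-down counted as active when the firefly/Renilla E2F signal rose above 50%, a threshold chosen arbitrarily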
The deposit covers about 21,000 reagents; this is a random part of those that have a named target and a result. Over the whole deposit, 18 (0.084%) were called active. 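Raw counts without plate normalisation, one of two replicates; the ratio scores behind the calls were not deposited.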 A number with no mark means an inactive call. Names joined by + are all predicted targets of the reagent. No sequences are given here. Not stated in the record: the amount of reagent, the time to read-out.

target gene	amplicon	E2F firefly, rep 1	Renilla normaliser, rep 1
CG14322	DRSC14801	1.24e5	7909
mRpL1 (mitochondrial ribosomal protein L1)	DRSC16251	1.25e5	5518
CG4854	DRSC15663	1.50e5	9267
Inx5 (Innexin 5)	DRSC20051	1.33e5	6364
CG4766	DRSC17736	1.19e5	6123
GstT2 (Glutathione S transferase T2)	DRSC06244	1.41e5	4712
nwk (nervous wreck)	DRSC10442	1.05e5	4415
CG12836	DRSC06182	1.57e5	5299
snu (snustorr)	DRSC16589	2027	840
Bx42	DRSC17743	4651	780
Rtc1	DRSC20285	6899	748
l(2)gd1 (lethal (2) giant discs 1)	DRSC02773	74393	3354
Cbp20 (cap binding protein 20)	DRSC16601	1.28e5	7608
CG6729	DRSC02984	75615	3606
Pkd2 (Polycystic kidney disease 2)	DRSC02962	97662	3445
yip2 (yippee interacting protein 2)	DRSC03640	1.49e5	5637
Ptp36E (Protein tyrosine phosphatase 36E)	DRSC03021	94296	4005
fred (friend of echinoid)	DRSC00349	1.50e5	4758
fred (friend of echinoid)	DRSC00599	1.43e5	4867
fred (friend of echinoid)	DRSC00601	1.46e5	4963
fred (friend of echinoid)	DRSC00602	1.54e5	4872
CG13705	DRSC08314	1.08e5	4254
CG4669	DRSC10440	83401	3701
CG7509	DRSC08596	71797	3168
Obp58b (Odorant-binding protein 58b)	DRSC04161	95428	4316
Fhos (Formin homology 2 domain containing)	DRSC08943	1.23e5	4897
Fhos (Formin homology 2 domain containing)	DRSC10545	79125	4003
Fhos (Formin homology 2 domain containing)	DRSC10546	76390	3560
Fhos (Formin homology 2 domain containing)	DRSC10547	1.09e5	4344
ppk26 (pickpocket 26)	DRSC10991	97542	4072
CG13603	DRSC14606	69904	3177
Rat1 (Rat1 5'-3' exoribonuclease)	DRSC02044	99139	4395
GstE1 (Glutathione S transferase E1)	DRSC07437	1.55e5	5103
CR14033 (pseudo)	DRSC02358	90132	3824
Ace (Acetylcholine esterase)	DRSC12959	76360	2597
Ace (Acetylcholine esterase)	DRSC14100	77035	3806
sunz (sungrazer)	DRSC12559	1.43e5	6578
RpL28 + snoRNA:Or-CD12	DRSC08293	66727	4034
Tep3 (Thioester-containing protein 3)	DRSC03452	1.42e5	4820
Obp83a (Odorant-binding protein 83a)	DRSC12362	1.30e5	7313
mop (myopic)	DRSC11065	73747	3633
CG18273	DRSC18150	70807	5548
CG18273	DRSC18505	1994	948
CG8641	DRSC11028	90025	3656
Sodq (Sodesque)	DRSC15924	1.07e5	5952
Sas-4 (Spindle assembly abnormal 4)	DRSC12505	1.25e5	6643
IFT46 (Intraflagellar transport 46)	DRSC02462	89844	3938
Mitofilin	DRSC16742	70934	3080
Rh7 (Rhodopsin 7)	DRSC10529	68872	3408

No new results follow: an excerpt of the list.
target gene	amplicon	E2F firefly, rep 1	Renilla normaliser, rep 1
mRpL1 (mitochondrial ribosomal protein L1)	DRSC16251	1.25e5	5518
CG4854	DRSC15663	1.50e5	9267
Inx5 (Innexin 5)	DRSC20051	1.33e5	6364
CG4766	DRSC17736	1.19e5	6123
GstT2 (Glutathione S transferase T2)	DRSC06244	1.41e5	4712
nwk (nervous wreck)	DRSC10442	1.05e5	4415
CG12836	DRSC06182	1.57e5	5299
snu (snustorr)	DRSC16589	2027	840
Bx42	DRSC17743	4651	780
Rtc1	DRSC20285	6899	748
l(2)gd1 (lethal (2) giant discs 1)	DRSC02773	74393	3354

More records:
target gene	amplicon	E2F firefly, rep 1	Renilla normaliser, rep 1
CG10761	DRSC17753	1.15e5	5776
Cisd2 (CDGSH iron sulfur domain 2)	DRSC14904	1.27e5	5761
CG11378	DRSC18627	1.15e5	6012
Ilp2 (Insulin-like peptide 2)	DRSC10968	74370	2961
tx (retired record)	DRSC16931	1663	788
CG4238	DRSC00090	1.38e5	5214
CG4238	DRSC00644	1.64e5	6834
CG11593	DRSC08206	1.06e5	4385
Ctu1 (Cytosolic thiouridylase subunit 1)	DRSC07069	1.44e5	4733
Gyc88E (Guanylyl cyclase at 88E)	DRSC15547	1.07e5	5524
CG12419 (retired record)	DRSC14513	1.23e5	5391
Pex10 (Peroxin 10)	DRSC08599	70213	4014
bor (belphegor)	DRSC16915	1.05e5	7116
CG3610	DRSC15502	1.18e5	5986
CG7655	DRSC16275	65476	3045
CG7101	DRSC20023	1.43e5	5133
DCP1 (Decapping protein 1)	DRSC04091	83400	3614
MnM (myomesin and myosin binding protein)	DRSC08423	1.08e5	4355
Ntmt (N-terminal methyltransferase)	DRSC06624	1.33e5	4884
ppk13 (pickpocket 13)	DRSC02382	1.03e5	4363
CG13775	DRSC02279	1.68e5	5407
CG12237	DRSC19449	1.67e5	5611
CG13247	DRSC11695	1.43e5	5904
Psi (P-element somatic inhibitor)	DRSC07519	1.54e5	5829
fry (furry)	DRSC08993	1.30e5	4748
fry (furry)	DRSC10172	1.16e5	5844
fry (furry)	DRSC10709	1.13e5	6355
fry (furry)	DRSC10712	73057	3427
CG12880	DRSC14568	1734	840
Clk (Clock)	DRSC11117	98107	4492
Nep3 (Neprilysin 3)	DRSC20685	1.47e5	7351
Cyp4p2 (Cytochrome P450 4p2)	DRSC07373	3330	193
rl (rolled)	DRSC07833	91989	4083
rl (rolled)	DRSC20742	1.31e5	6619
CG32533	DRSC19443	1.65e5	5461
CG32533	DRSC19553	1.24e5	6800
